Test results: paper PMC12713192
Results are given in words; binding and its absence hold for the method and conditions named. In cells and extracts the contact can be indirect. Some binding calls cover weakened binding; strength is not graded here. For some of these results: Tags and fused reporters may be left off the sequences shown. Values belong to the molecule of their own block, whether it stands above or below them.

The chains behind the UniProt entries cited, without tags or fusion partners. Where a name states a change or a piece, a line headed by the entry shows the natural chain unless it says otherwise. A line that says so, or that is headed by a name, gives the form on record, which may keep a tag or linker.
UniProt Q13131: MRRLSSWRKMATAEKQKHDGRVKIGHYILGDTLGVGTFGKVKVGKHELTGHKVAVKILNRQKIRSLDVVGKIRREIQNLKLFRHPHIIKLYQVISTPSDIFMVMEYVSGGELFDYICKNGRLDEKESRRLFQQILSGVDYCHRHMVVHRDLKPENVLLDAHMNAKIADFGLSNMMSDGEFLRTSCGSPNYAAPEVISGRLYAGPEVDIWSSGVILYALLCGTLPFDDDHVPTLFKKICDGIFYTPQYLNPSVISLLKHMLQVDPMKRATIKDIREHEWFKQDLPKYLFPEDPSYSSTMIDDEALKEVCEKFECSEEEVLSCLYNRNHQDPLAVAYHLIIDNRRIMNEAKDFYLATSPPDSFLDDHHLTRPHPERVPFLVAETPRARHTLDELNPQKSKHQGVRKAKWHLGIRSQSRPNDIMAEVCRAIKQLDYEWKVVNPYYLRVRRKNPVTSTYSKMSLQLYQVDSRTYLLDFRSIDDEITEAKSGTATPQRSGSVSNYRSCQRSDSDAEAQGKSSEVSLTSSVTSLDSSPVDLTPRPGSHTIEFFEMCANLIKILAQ
Flag-AMPKα1, full length (Q13131, form named): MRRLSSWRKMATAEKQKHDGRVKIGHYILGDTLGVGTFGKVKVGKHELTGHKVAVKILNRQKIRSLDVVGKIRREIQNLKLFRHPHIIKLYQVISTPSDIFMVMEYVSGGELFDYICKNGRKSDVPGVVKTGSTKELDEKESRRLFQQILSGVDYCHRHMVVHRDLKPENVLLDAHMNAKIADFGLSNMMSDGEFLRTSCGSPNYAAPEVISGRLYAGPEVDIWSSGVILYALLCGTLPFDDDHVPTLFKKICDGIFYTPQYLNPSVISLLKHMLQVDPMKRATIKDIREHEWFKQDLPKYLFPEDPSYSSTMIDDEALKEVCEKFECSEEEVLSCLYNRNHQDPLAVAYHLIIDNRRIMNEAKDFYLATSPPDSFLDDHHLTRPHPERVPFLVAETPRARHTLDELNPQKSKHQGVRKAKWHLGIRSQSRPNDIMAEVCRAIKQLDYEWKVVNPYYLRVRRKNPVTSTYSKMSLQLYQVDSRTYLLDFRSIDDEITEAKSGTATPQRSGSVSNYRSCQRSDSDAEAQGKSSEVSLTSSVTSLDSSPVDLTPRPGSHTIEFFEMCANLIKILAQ
Flag-AMPKα1 P3 (Δ397-574 aa) (Q13131, form named): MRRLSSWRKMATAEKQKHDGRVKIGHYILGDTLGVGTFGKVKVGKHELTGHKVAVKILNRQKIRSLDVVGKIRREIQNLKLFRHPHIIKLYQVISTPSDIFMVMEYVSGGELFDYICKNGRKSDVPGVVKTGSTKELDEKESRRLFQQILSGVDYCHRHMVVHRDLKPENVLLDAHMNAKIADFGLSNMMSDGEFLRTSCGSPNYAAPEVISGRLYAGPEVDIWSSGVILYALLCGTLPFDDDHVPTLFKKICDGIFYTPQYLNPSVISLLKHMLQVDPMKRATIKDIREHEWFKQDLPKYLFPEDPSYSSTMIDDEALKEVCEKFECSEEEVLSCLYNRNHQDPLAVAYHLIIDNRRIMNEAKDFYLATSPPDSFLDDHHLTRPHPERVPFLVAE
Flag-AMPKα1 P2 (Δ295-396 aa) (Q13131, form named): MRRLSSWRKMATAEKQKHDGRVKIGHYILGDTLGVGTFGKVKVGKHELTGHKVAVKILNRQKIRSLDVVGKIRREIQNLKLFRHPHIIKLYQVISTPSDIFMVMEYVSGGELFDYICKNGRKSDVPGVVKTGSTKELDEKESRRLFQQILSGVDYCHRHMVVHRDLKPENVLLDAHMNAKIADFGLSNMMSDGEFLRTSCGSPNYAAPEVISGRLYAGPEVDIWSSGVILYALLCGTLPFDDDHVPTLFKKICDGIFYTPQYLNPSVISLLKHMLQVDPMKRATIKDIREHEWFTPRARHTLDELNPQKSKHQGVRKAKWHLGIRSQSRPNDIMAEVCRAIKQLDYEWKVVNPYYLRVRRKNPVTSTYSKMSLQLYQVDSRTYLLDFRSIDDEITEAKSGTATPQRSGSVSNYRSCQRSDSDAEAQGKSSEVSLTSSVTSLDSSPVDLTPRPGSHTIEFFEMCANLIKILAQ
UniProt Q96SW2: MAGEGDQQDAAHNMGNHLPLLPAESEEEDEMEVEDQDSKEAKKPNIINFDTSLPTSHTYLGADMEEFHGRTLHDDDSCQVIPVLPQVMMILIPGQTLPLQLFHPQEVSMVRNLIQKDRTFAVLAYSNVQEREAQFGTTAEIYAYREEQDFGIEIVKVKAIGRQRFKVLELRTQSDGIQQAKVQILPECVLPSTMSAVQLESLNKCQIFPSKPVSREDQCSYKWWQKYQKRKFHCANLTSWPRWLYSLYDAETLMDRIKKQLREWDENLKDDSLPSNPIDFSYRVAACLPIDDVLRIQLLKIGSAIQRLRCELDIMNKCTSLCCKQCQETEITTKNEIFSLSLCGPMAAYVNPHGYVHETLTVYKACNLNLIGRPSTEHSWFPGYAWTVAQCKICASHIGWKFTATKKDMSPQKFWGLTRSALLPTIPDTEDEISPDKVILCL

What was measured:
[1] = target: Flag-AMPKα1, full length (human) (UniProt Q13131); assay: co-IP; HEK293T cells transfected with myc-KSR2 (wt) or myc-KSR2(373T), Flag-AMPKα1 and myc-CRBN for 48 h; immunoblotting
[2] = target: AMPKα1, endogenous (human (endogenous in HUVECs)) (UniProt Q13131); assay: co-IP; HUVECs transfected with increasing amounts of myc-KSR2 plasmid (0, 1, 2, 3 μg) for 48 h, MG132 (10 μM), oxLDL (100 μg/mL) 24 h; endogenous AMPKα1 and CRBN
[3] = target: AMPKα1, endogenous (human (endogenous in HUVECs)) (UniProt Q13131); assay: co-IP; endogenous proteins in HUVECs, with or without oxLDL (100 μg/mL, 24 h); immunoprecipitation with AMPKα1 or control IgG antibodies; native lysis buffer, protein A/G magnetic beads, PBST washes
[4] = target: Flag-AMPKα1 P3 (Δ397-574 aa) (human) (UniProt Q13131); assay: co-IP; HEK293T cells transfected with myc-KSR2 and full-length or truncated Flag-AMPKα1 for 48 h; immunoblotting
[5] = target: Flag-AMPKα1 P2 (Δ295-396 aa) (human) (UniProt Q13131); assay: as above
[6] = target: Flag-AMPKα1, full length (human) (UniProt Q13131); assay: as above

- binding [4]: binds
- binding [5]: binds
- binding [6]: binds
B2: myc-KSR2 (wild type), in HEK293T cells (protein, UniProt Q6VAB6 1-950)
chain: MDEENMTKSEEQQPLSLQKALQQCELVQNMIDLSISNLEGLRTKCATSNDLTQKEIRTLESKLVKYFSRQLSCKKKVALQERNAELDGFPQLRHWFRIVDVRKEVLEEISPGQLSLEDLLEMTDEQVCETVEKYGANREECARLNASLSCLRNVHMSGGNLSKQDWTIQWPTTETGKENNPVCPPEPTPWIRTHLSQSPRVPSKCVQHYCHTSPTPGAPVYTHVDRLTVDAYPGLCPPPPLESGHRSLPPSPRQRHAVRTPPRTPNIVTTVTPPGTPPMRKKNKLKPPGTPPPSSRKLIHLIPGFTALHRSKSHEFQLGHRVDEAHTPKAKKKSKPLNLKIHSSVGSCENIPSQQRSPLLSERSLRSFFVGHAPFLPSTPPVHTEANFSANTLSVPRWSPQIPRRDLGNSIKHRFSTKYWMSQTCTVCGKGMLFGLKCKNCKLKCHNKCTKEAPPCHLLIIHRGDPARLVRTESVPCDINNPLRKPPRYSDLHISQTLPKTNKINKDHIPVPYQPDSSSNPSSTTSSTPSSPAPPLPPSATPPSPLHPSPQCTRQQKNFNLPASHYYKYKQQFIFPDVVPVPETPTRAPQVILHPVTSNPILEGNPLLQIEVEPTSENEEVHDEAEESEDDFEEMNLSLLSARSFPRKASQTSIFLQEWDIPFEQLEIGELIGKGRFGQVYHGRWHGEVAIRLIDIERDNEDQLKAFKREVMAYRQTRHENVVLFMGACMSPPHLAIITSLCKGRTLYSVVRDAKIVLDVNKTRQIAQEIVKGMGYLHAKGILHKDLKSKNVFYDNGKVVITDFGLFSISGVLQAGRREDKLRIQNGWLCHLAPEIIRQLSPDTEEDKLPFSKHSDVFALGTIWYELHAREWPFKTQPAEAIIWQMGTGMKPNLSQIGMGKEISDILLFCWAFEQEERPTFTKLMDMLEKLPKRNRRLSHPGHFWKSAEL

- binding [2]: binds
B3: myc-KSR2 (wild type), in HUVECs (protein, UniProt Q6VAB6 1-950)
chain: B2 chain

The next lines start with the molecule.

Molecule: myc-CRBN, in HEK293T cells (from UniProt Q96SW2 1-442)
- binding [1]: binds

Molecule: CRBN, endogenous (from UniProt Q96SW2 1-442)
- binding [2]: binds

B1: kinase suppressor of Ras 2 (KSR2), endogenous (protein, UniProt Q6VAB6 1-950)
chain: B2 chain
- binding [3]: binds
